Experimental data taken from publication PMC9788671.
Results are given in words; binding and its absence hold for the method and conditions named. In cells and extracts the contact can be indirect. Here binding means that the protein was enriched with, or labelled near, the bait; the list need not be complete.

Protein sequences, listed by entry. Tags and fused reporters are not part of them.
UniProt Q9NZV8: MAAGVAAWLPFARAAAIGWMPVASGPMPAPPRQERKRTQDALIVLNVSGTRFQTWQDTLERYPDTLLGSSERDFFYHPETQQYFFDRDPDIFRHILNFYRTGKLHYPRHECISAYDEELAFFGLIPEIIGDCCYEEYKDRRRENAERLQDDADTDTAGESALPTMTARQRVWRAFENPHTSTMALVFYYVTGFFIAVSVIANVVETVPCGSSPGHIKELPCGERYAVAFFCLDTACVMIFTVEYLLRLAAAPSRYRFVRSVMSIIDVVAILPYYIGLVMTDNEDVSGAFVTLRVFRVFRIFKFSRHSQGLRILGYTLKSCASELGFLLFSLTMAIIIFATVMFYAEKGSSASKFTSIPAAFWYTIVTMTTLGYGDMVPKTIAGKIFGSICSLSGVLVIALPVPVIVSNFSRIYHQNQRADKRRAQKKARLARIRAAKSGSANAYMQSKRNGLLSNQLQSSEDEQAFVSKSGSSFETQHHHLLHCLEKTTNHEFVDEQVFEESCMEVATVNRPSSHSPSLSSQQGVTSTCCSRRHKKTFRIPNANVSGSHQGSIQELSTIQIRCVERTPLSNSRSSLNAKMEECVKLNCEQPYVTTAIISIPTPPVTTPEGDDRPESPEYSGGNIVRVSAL

B1: Camkv (protein, UniProt Q63092 1-504)
chain: MPFGCVTLGDKKNYNQPSEVTDRYDLGQVVKTEEFCEIFRAKDKTTGKLHTCKKFQKRDGRKVRKAAKNEIGILKMVKHPNILQLVDVFVTRKEYFIFLELATGREVFDWILDQGYYSERDTSNVVRQVLEAVAYLHSLKIVHRNLKLENLVYYNRLKNSKIVISDFHLAKLENGLIKEPCGTPEYLAPEVVGRQRYGRPVDCWAIGVIMYILLSGNPPFYEEVEEDDYENHDKNLFRKILAGDYEFDSPYWDDISQAAKDLVTRLMEVEQDQRITAEEAISHEWISGNAASDKNIKDGVCAQIEKNFARAKWKKAVRVTTLMKRLRAPEQSGTAATSDAATPGAAGGAVAAAAGGAAPASGASATVGTGGDAGCAAKSDDMASADRSATPATDGSATPATDGSVTPATDGSITPATDGSVTPATDRSATPATDGRATPATEESTVPAAQSSAAPAAKAAATPEPAVAQPDSTALEGATGQAPPSSKGEEATGCAQESQRVETS
B2: Farsa (protein, UniProt Q505J8 1-508)
chain: MADNPVLEQLLRRLEVADGGLDSAELATQLGVEHQAVVGAVKSLQALGEVIEAELRSTKCWELTTEGEEIAREGSHEARVFRSIPLEGLVQSELMQLPSGKVGFSKAMSNKWIRVDKSAADGPRVFRVVDSIEDEVQRRLQQVQAGQAEKLAEKERNELRKRKLLTEVILKTYWVSKGKGFSTSVSKQEAELSPEMISSGSWRDRPFKPYNFSARGVLPDSGHLHPLLKVRSQFRQIFLEMGFTEMPTDNFIESSFWNFDALFQPQQHPARDQHDTFFLRDPAEALQLPMDYVQRVKRTHSQGGYGSQGYKYTWKLEEARKNLLRTHTTAASARALYRLAQKKPFTPAKYFSIDRVFRNETLDATHLAEFHQIEGVIADHGLTLGHLMGVLREFFTKLGITQLRFKPAYNPYTEPSMEVFSYHQGLKKWVEVGNSGVFRPEMLLPMGLPENVSVIAWGLSLERPTMIKYGINNIRELVGHKVNLQMVYDSPVCRLDIEPRSSKTQEAA
B3: Rbm4 (protein, UniProt M0R3R6 1-365)
chain: MVKLFIGNLPREATEQEIRSLFEQYGKVLECDIIKNYGFVHIEDKTAAEDAIRNLHHYKLHGVNINVEASKNKSKASTKLHVGNISPTCTNQELRAKFEEYGPVIECDIVKDYAFVHMERAEDAVEAIRGLDNTEFQGKRMHVQLSTSRLRTAPGMGDQSGCYRCGKEGHWSKECPIDRSGRVADLTEQYNEQYGAVRTPYTMSYGDSLYYNNTYGALDAYYKRCRAARSYEAVAAAAASAYNNYAEQTLSQLPQVQNTAMASHLTSTSLDPYNRHLLPPSGAAAAAAAAAAAAAACTAASTPYYGRDRSPLRRATGPVPTVGEGYGYGHDSELSQASAAARNSLYDMARYEREQYADRARYSAF
B4: Dnajc10 (protein, UniProt Q498R3 33-793)
chain: DQNFYSLLGVSKTASSREIRQAFKKLALKLHPDKNPNNPNAHGDFLKINRAYEVLKDEDLRKKYDKYGEKGLEDNQGGQYESWSYYRYDFGIYDDDPEIITLERREFDAAVNSGELWFVNFYSPGCSHCHDLAPTWREFAKEVDGLLRIGAVNCGDDRMLCRMKGVNSYPSLFIFRSGMAAVKYNGDRSKESLVSFAMQHVRTTVTELSTGNFVNAIETAFAAGIGWLITFCFKGEDCLTPQTRLRLSGMLDGLVNVGWVDCDTQDSLCKSLDATASTTAYFPPGATLNNKEKSSVLFLNSLDAKEIYMEIIHNLPDFELLSANKLEDRLAHHRWLVFFHFGKNENANDPELKKLKTLLKNEHIQVGRFDCSSAPGICSDLYVFQSCLAVFKGQGTKEYEIHHGKKILYDILAFAKESVNSHVTTLGPQNFPASDKEPWLVDFFAPWCPPCRALLPELRKASTLLYGQLKVGTLDCTIHEGLCNMYNIQAYPTTVVFNQSSVHEYEGHHSAEQILEFIEDLRNPSVVSLTPTTFNELVKQRKHDEVWMVDFYSPWCHPCQVLMPEWKRMARTLTGLINVGSVDCQQYHSFCTQENVQRYPEIRFYPQKSSRAYQYHSYNGWNRDAYSLRSWGLGFLPQASIDLTPQTFNEKVLQGKTHWVIDFYAPWCGPCQNFAPEFELLARMIKGKVKAGKVDCQAYPQTCQKAGIRAYPSVKLYLYERAKKSIWEEQINSRDAKTIAALIYGKLETFQSQVKRNKDEL
B5: Trim67 (protein, UniProt D3ZTX1 1-772)
chain: MEEELKCPVCGSLFREPIILPCSHNVCLPCARTIAVQTPDGEQHLPPPLLLSRGAAAAAAAPPPDQDAAAGATCGGAGASTAGGLGGGAAGGGDHADKLSLYSETDSGYGSYTPSLKSPNGVRVLPMVPAPPGSSAAAARGAACSSLCSSSSSITCPQCHRSASLDHRGLRGFQRNRLLEGIVQRYQQGRGVAAGASAAPAVAICQLCDRTPPEPAATLCEQCDVLYCATCQLKCHPSRGPFAKHRLVQPPPPPAPPEATSASVGTSTASSAGGCRSPGGAGAPVPRKFPTCPEHEMENYSMYCVSCRSPVCYMCLEEGRHGKHEVKPLGATWKQHKAQLSQALNGVSDKAKEAKEFLVQLKNILQQIQENGLDYEACLVAQCDALVDALTRQKAKLLTKVTKEREQKLKMVWDQINHCTLKLRQSTGLMEYCLEVIKEDDPSGFLQISDALIKRVQTSQEQWVKGALEPKVSAEFDLTLDSEPLLQAIHQLDFVQMKCRVPPVPLLQLEKCCTRNNSATLAWRTPPFTHSPADGYILELDDGDGGQFREVYVGKETLCTIDGLHFNSTYNARVKAFNSSGVGPYSKTVVLQTSDVAWFTFDPNSGHRDIILSNDNQTATCSSYDDRVVLGTAAFSKGAHYWELHVDRYDNHPDPAFGVARASVVKDMMLGKDDKAWAMYVDNNRSWFMHCNSHTNRTEGGVCKGATVGVLLDLNKHTLTFFINGQQQGPTAFSHVDGVFMPALSLNRNVQVTLHTGLEVPTNLGRPKLSGN
B6: Micu1 (protein, UniProt Q6P6Q9 34-477)
chain: MLVAFLGASAVTASTGLLWKKAHAESPPSVNSKKTDAGDKGKSKDTREVSSHEGSAADTAAEPYPEEKKKKRSGFRDRKVMEYENRIRAYSTPDKIFRYFATLKVINEPGETEVFMTPQDFVRSITPNEKQPEHLGLDQYIIKRFDGKKIAQEREKFADEGSIFYTLGECGLISFSDYIFLTTVLSTPQRNFEIAFKMFDLNGDGEVDMEEFEQVQSIIRSQTSMGMRHRDRPTTGNTLKSGLCSALTTYFFGADLKGKLTIKNFLEFQRKLQHDVLKLEFERHDPVDGRISERQFGGMLLAYSGVQSKKLTAMQRQLKKHFKDGKGLTFQEVENFFTFLKNINDVDTALSFYHMAGASLDKVTMQQVARTVAKVELSDHVCDVVFALFDCDGNGELSNKEFVSIMKQRLMRGLEKPKDMGFTRLMQAMWKCAQETAWDFALPK
B7: Copb1 (protein, UniProt P23514 1-953)
chain: MTAAENVCYTLINVPMDSEPPSEISLKNDLEKGDVKSKTEALKKVIIMILNGEKLPGLLMTIIRFVLPLQDHTIKKLLLVFWEIVPKTTPDGRLLHEMILVCDAYRKDLQHPNEFIRGSTLRFLCKLKEAELLEPLMPAIRACLEHRHSYVRRNAVLAIYTIYRNFENLIPDAPELIHDFLVNEKDASCKRNAFMMLIHADQDRALDYLSTCIDQVQTFGDILQLVIVELIYKVCHANPSERARFIRCIYNLLQSSSPAVKYEAAGTLVTLSSAPTAIKAAAQCYIDLIIKESDNNVKLIVLDRLVELKEHPAHERVLQDLVMDILRVLSTPDLEVRKKTLQLALDLVSSRNVEELVIVLKKEVIKTNNVSEHEDTDKYRQLLVRTLHSCSVRFPDMAANVIPVLMEFLSDSNEAAAADVLEFVREAIQRFDNLRMLIVEKMLEVFHAIKSVKIYRGALWILGEYCSTKEDIQSVMTEVRRSLGEIPIVESEIKKEAGELKPEEEITVGPVQKLVTEMGTYATQSALSSSRPTKKEEDRPPLRGFLLDGDFFVAASLATTLTKIALRYVALVQEKKKQNSFVAEAMLLMATILHLGKSSLPKKPITDDDVDRISLCLKVLSECSPLMNDIFNKECRQSLSQMLSAKLEEEKLSQKKESEKRNVTVQPDDPISFMQLTAKNEMNCKEDQFQLSLLAAMGNTQRKEAADPLASKLNKVTQLTGFSDPVYAEAYVHVNQYDIVLDVLVVNQTSDTLQNCTLELATLGDLKLVEKPSPLTLAPHDFANIKANVKVASTENGIIFGNIVYDVSGAASDRNCVVLSDIHIDIMDYIQPATCTDAEFRQMWAEFEWENKVTVNTNVTDLNDYLQHILKSTNMKCLTPEKALSGYCGFMAANLYARSIFGEDALANVSIEKPVHQGPDAAVTGHIRIRAKSQGMALSLGDKINLSQKKTSL

Biological target: TAP-Kv4.2 (human) (UniProt Q9NZV8)
Experiment: affinity purification with mass spectrometry; TAP-Kv4.2 expressed by lentivirus in rat hippocampal neurons, harvested at DIV14; weak lysis buffer of the kit (0.1% NP-40); streptavidin resin, then calmodulin resin; gel cut into high and low molecular weight fragments; no MS of the control sample

| binding | Binder |
| --- | --- |
| binds | B1 |
| binds | B2 |
| binds | B3 |
| binds | B4 |
| binds | B5 |
| binds | B6 |
| binds | B7 |
